Reference: publication PMC10645843, “Fungal secondary metabolism is governed by an RNA-binding protein CsdA/RsdA complex” (Nature Communications, 2023)
Results are given in words; binding and its absence hold for the method and conditions named. In cells and extracts the contact can be indirect. These calls come from enrichment with a bait or labelling near it, and not all partners need be listed. Sequences can lack the tags named with a protein.

Biological target: T1, RsdA-His (PFICI_10532), recombinant (Pestalotiopsis fici, UniProt W3WX91 1-730)
T1 construct: RsdA, regulator of secondary metabolism and development, Pestalotiopsis fici, locus PFICI_10532; open reading frame amplified from P. fici cDNA; RsdA-His printed as 80.4 kDa; Printed as RsdA-His; vector pET28a (His6-tag); also called PfRsdA; RsdA-His protein; source: E. coli BL21 (plasmid pYZS42, pET28a), purified (Ni-NTA resin)
T1 sequence (looked up): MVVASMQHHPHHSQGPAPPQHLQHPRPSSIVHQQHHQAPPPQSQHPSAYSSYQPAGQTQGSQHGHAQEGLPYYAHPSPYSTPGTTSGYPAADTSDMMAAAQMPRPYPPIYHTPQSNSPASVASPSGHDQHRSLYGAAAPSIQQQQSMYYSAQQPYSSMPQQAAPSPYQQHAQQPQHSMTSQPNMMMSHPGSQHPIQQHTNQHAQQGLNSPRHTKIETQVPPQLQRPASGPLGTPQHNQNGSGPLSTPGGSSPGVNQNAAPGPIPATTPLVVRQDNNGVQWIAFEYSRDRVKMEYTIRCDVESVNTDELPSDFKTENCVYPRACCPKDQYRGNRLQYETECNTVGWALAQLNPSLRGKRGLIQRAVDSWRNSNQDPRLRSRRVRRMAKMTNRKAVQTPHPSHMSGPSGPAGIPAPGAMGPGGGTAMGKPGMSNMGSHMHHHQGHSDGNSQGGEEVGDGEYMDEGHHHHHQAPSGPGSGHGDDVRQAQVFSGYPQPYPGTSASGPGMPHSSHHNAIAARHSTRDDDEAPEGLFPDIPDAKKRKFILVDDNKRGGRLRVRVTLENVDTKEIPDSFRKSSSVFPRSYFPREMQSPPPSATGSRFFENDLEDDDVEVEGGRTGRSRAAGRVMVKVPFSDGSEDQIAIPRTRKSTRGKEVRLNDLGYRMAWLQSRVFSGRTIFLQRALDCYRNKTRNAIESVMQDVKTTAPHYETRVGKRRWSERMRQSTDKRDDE
Assay: affinity purification with mass spectrometry; 1 mg RsdA-His on Ni-NTA resin, 10 mg total soluble proteins of P. fici added; wash 50 mM NaH2PO4, 300 mM NaCl, 30 mM imidazole, pH 8.0; eluted with 250 mM imidazole; 12% SDS-PAGE, whole lanes or bands cut for LC-MS, Mascot (p < 0.05); controls: RsdA only, total proteins only; only the target purified

- binding: binds
B1: CsdA (PFICI_10709), endogenous (protein, UniProt W3WSJ8 1-634)
chain: MSTVPPQPPHFDRYVVIHVATTCDEHGVYVTKDSAEVIELGWIELDAKSLEELHRESVLVKPINTPITPLCTSLTTLTWEHVRNAGTFRDAINRFDAFASEHLTNQNLDFVFVTLDAWDLRVQLPREARDKAVVLPPYLQHSRTFDLRTEYQRWQQHHPESLPFGPSMLSNICAALEVEPVQSSAPIKHNLPFHLQALAPASPRRAMEEAITLARVLRGLIRKSQPAHEHPDVLTRPMDARADVRAFLSERSKVLHMSGLPHDTTQSELESWFTQFGGRPIAFWTLRTPEQHKPTGTGFAVFSSHEEAAESLCMNGRALNEKAIEVSPSSSRVLDRAAEILTPFPPSKNRPRPGDWTCPSCGFSNFQRRTACFRCSFPAVGAGGPQNEMSSYGGGGGGSGGYGYGAPPMMPPPHHGGHHHHHGGMGHGGGRMGGSGVVPFRAGDWKCGNEVCGYHNFAKNVCCLRCGASRAGAAVVADSGYPSPMDSGSNYGMGSHSVGGTPGPGPYASAGGPFGGAGGGYGQHFGGPPSTYALPSGIGGGAAPYPSALNTHIGGPAPGSHSAGPFDSRAAEAAFQSAGNGPASAGPSNNFFGSQAENDPFAFLSTGIGGLTVSGDARQNGSGAGGPQSKSPAA
